Literature values, collected in patent publication US20050188697A1, “Fluorinated ketone and fluorinated ethers as working fluids for thermal energy conversion” (HONEYWELL CORPORATION, priority 2004, published 2005).
At least one compound was matched to its structure with a doubt left.

In the case of `O=C(C(F)(F)C(F)(F)F)C(F)(C(F)(F)F)C(F)(F)F` [Perfluoroethyl perfluoroisopropyl ketone, dodecafluoro-2-methylpentan-3-one], the “Boiling Point” value is given as 49.2 °C and the “Critical Pressure” value is given as 270.50 psia.
